Test results reported in patent US7220822B2, “CD28 mimetics for blocking T cell mediated immune reactions” (The Ohio State University, priority 2000, dated 2007).
Values joined by “and” are separate entries in the source; they are usually repeats but may differ in a detail not shown here. Equal entries are not always repeated. For at least one compound, name, drawing or mass did not settle the structure. Peptide text beside a SMILES is read from it.

By UniProt entry, the sequences of proteins in these tests, tags left out. Residues count along the entry.
UniProt P33681, 35-242 limits assumed: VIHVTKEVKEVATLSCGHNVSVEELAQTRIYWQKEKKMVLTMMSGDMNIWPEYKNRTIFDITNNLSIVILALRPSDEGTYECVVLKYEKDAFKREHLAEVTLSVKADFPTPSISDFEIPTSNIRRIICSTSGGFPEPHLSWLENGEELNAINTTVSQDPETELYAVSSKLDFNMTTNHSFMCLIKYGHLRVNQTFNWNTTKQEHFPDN

Tests used:
[1] = biological target: T1, CD80-Ig (Homo sapiens, UniProt P33681); assay: Direct kinetic analysis of CD28 peptide binding to immobilized CD80-Ig by surface plasmon resonance (BIACORE); settings: read-out: Kd for binding to CD80-Ig (direct binding); SPR, 37° C., peptide 375 nM to 18 μM over immobilized CD80-Ig
T1 construct: extracellular domain of CD80 fused with the constant region of mouse IgG1 heavy chain
Experimental: Binding experiments were performed by surface plasmon resonance (SPR) on an instrument sold under the trademark BIACORE™ from Pharmacia Biosensor (Uppasala, Sweden).
CD80-Ig (extracellular domain of CD80 fused with the constant region of mouse IgG1 heavy chain) at 35 μg/ml in 10 mM sodium acetate buffer, pH 4.2, was coupled to a research grade CM 5 sensor chip using a standard amine coupling procedure with the following modifications (38). To reduce the immobilization level of the ligand, the surface was activated for 3 (instead of 7) minutes with N-hydroxysuccinamide and […]. […] Following coupling, noncovalently bound ligand was removed by washing twice with 5 mM NaOH. […]
Data analysis was performed with BIAEVALUATION™ software version 2.1(Pharmacia Biosensor AB). […] First, the dissociation rate constant, kd, (units: s^−1) was determined, by fitting experimental data from the buffer flow part of the sensogram to the equation R(t)=R1*e^−kd*(t^0^−t^1^) (1) where t0 is the injection time, R1 is the response level at the start of dissociation time t1 and kd is the dissociation rate constant. […]
After analyzing sensograms obtained from injections of increasing concentrations of peptide analytes or CD28-Ig, the experimental data was analyzed using the BIAsimulation software 2.1. […]

[2] = biological target: T1, CD80-Ig; assay: Competitive kinetic analysis (SPR): CD28 peptides versus CD28-Ig for binding indirectly immobilized CD80-Ig
Experimental: Competitive kinetic analysis was performed as described previously using purified anti-mouse IgG1 Fc (31437zz) (Pierce City, Ill., USA) to indirectly immobilize CD80-Ig (39). […] The binding kinetics of CD28-Ig was assessed by injecting a range of CD28-Ig concentration (187 nM to 12 μM) over immobilized CD80-Ig (324 RU) for 5 min at 10 μl/min. CD80-Ig was regenerated using a 3 min injection of 5 mM NaOH. For competitive kinetic analysis, 100 μl of a 3.2 μM CD28-Ig solution was mixed with 100 μl of EL CD28 or RI CD28 peptides (6.18 μM to 503 μM in HBS-EP) and injected over the surface of CD80-Ig as secondary analyte for 5 min with a flow rate of 10 μl/min. The CD80-Ig surface was regenerated between injections by washing for 3 min with 5 mM NaOH. The mixtures were also injected on an empty flow cell with no protein immobilized, as a control.
In competitive kinetic experiments, the observed response R is the sum of the contributions of R1 and R2 from the two analytes. The binding data was analyzed using the equation R(t)=R1 (CD28-Ig)+R2 (CD28-P) (3) where • R1=Rmaxka1C1/kf−ks{k1(kf−ks)/kf*ks+k1−kf/kf*e^−kf^(t−t0)−k1ks/ks*e^−ks(t−t0)} • R2=RmaxMW1ka2C2/MW2*kf−ks[{k2(kf−ks)}/kf*ks}+(k2−kf/kf)*e^−kf^(t−t0)−(k2−ks/ks)*e^−ks(t−t0) • kf=0.5{ktq+k2+π(ka1−k2)^2+4kf1kCD28PC1C2} • ks=0.5{kt1+k2−π(kt1−k2)^2+4k1k2C1C2} • kt CD28-Ig=ka1C+kd1 • kt2=ka2C2+kd2
When competitive data were analyzed, ka, kd and Rmax values obtained for the interaction between CD80-Ig and CD28-Ig were used as non floating parameters and the rate constants for CD28 peptides were calculated from the injection phase data using the expanded equation 3.
FIGS. 4a and 4b are representative sensograms obtained from the competitive experiments using the CD28-Ig and ELCD28 and RICD28 APR respectively. The top curve is the interaction of CD28-Ig (3.2 μM) alone with the CD80-Ig. The response level gradually goes down as the concentration of the specified CD28 peptide increases. […] However, the dissociation constant varied with varying concentration of EL CD28 peptide mimetic(Table 3).

SMILES	Kd [1]	Kd ([2]; competition with CD28-Ig 3.2 μM, peptide C 0.125 × 10^5 nM)	Kd ([2]; competition with CD28-Ig 3.2 μM, peptide C 0.25 × 10^5 nM)	Kd ([2]; competition with CD28-Ig 3.2 μM, peptide C 0.5 × 10^5 nM)	Kd ([2]; competition with CD28-Ig 3.2 μM, peptide C 1 × 10^5 nM)	Kd ([2]; competition with CD28-Ig 3.2 μM, peptide C 2 × 10^5 nM)	Kd ([2]; competition with CD28-Ig 3.2 μM, peptide C 3 × 10^5 nM)	Kd ([2]; read-out: average dissociation constant for binding to CD80-Ig, competitive kinetic analysis, average over peptide concentrations)
CC[C@H](C)[C@H](NC(=O)[C@@H](NC(=O)CNC(=O)[C@H](CC(N)=O)NC(=O)[C@H](CO)NC(=O)[C@H](CCCNC(=N)N)NC(=O)[C@H](CCC(=O)O)NC(=O)[C@H](CC(N)=O)NC(=O)[C@H](CC(=O)O)NC(=O)[C@H](CC(C)C)NC(=O)[C@H](Cc1ccc(O)cc1)NC(=O)[C@@H]1CCCN1C(=O)[C@@H]1CCCN1C(=O)[C@@H]1CCCN1C(=O)[C@H](Cc1ccc(O)cc1)NC(=O)[C@H](CCSC)NC(=O)[C@H](Cc1ccccc1)NC(=O)[C@H](CCC(=O)O)NC(=O)[C@@H](NC(=O)[C@H](CCCCN)NC(C)=O)[C@@H](C)CC)[C@@H](C)O)C(N)=O [EL CD28] (Ac-KIEFMYPPPYLDNERSNGTI-NH2)	2340 nM and 2530 nM	1380 nM	3360 nM	5000 nM	2540 nM	1560 nM	2920 nM	2790 nM
CC[C@H](C)[C@H](NC(=O)[C@@H](NC(=O)CNC(=O)[C@H](CC(N)=O)NC(=O)[C@H](CO)NC(=O)[C@H](CCCNC(=N)N)NC(=O)[C@H](CCC(=O)O)NC(=O)[C@H](CC(N)=O)NC(=O)[C@H](CC(=O)O)NC(=O)[C@H](CC(C)C)NC(=O)[C@H](Cc1ccc(O)cc1)NC(=O)[C@@H]1CCCN1C(=O)[C@@H]1CCCN1C(=O)[C@@H]1CCCN1C(=O)[C@H](Cc1ccc(O)cc1)NC(=O)[C@H](CCSC)NC(=O)[C@H](Cc1ccccc1)NC(=O)[C@H](CCC(=O)O)NC(=O)[C@@H](NC(=O)[C@@H](N)CCCCN)[C@@H](C)CC)[C@@H](C)O)C(=O)O [L CD28, NH2KIEFMYPPPYLDNERSNGTICOOH] (H-KIEFMYPPPYLDNERSNGTI-OH)	2440 nM							
